## Primary screen of a compound library

By UniProt entry, the sequences of proteins in these tests, tags left out. Residues count along the entry.
UniProt P9WFT3, whole entry: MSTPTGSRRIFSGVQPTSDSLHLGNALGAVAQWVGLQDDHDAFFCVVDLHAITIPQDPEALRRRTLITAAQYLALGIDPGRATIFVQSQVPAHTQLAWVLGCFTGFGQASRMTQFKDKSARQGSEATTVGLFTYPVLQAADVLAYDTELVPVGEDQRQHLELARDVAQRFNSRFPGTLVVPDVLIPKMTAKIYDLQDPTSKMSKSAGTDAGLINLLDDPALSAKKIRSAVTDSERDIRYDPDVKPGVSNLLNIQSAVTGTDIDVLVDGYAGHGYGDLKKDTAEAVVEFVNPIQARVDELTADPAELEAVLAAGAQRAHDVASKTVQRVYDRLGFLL
UniProt I6X8D2, whole entry: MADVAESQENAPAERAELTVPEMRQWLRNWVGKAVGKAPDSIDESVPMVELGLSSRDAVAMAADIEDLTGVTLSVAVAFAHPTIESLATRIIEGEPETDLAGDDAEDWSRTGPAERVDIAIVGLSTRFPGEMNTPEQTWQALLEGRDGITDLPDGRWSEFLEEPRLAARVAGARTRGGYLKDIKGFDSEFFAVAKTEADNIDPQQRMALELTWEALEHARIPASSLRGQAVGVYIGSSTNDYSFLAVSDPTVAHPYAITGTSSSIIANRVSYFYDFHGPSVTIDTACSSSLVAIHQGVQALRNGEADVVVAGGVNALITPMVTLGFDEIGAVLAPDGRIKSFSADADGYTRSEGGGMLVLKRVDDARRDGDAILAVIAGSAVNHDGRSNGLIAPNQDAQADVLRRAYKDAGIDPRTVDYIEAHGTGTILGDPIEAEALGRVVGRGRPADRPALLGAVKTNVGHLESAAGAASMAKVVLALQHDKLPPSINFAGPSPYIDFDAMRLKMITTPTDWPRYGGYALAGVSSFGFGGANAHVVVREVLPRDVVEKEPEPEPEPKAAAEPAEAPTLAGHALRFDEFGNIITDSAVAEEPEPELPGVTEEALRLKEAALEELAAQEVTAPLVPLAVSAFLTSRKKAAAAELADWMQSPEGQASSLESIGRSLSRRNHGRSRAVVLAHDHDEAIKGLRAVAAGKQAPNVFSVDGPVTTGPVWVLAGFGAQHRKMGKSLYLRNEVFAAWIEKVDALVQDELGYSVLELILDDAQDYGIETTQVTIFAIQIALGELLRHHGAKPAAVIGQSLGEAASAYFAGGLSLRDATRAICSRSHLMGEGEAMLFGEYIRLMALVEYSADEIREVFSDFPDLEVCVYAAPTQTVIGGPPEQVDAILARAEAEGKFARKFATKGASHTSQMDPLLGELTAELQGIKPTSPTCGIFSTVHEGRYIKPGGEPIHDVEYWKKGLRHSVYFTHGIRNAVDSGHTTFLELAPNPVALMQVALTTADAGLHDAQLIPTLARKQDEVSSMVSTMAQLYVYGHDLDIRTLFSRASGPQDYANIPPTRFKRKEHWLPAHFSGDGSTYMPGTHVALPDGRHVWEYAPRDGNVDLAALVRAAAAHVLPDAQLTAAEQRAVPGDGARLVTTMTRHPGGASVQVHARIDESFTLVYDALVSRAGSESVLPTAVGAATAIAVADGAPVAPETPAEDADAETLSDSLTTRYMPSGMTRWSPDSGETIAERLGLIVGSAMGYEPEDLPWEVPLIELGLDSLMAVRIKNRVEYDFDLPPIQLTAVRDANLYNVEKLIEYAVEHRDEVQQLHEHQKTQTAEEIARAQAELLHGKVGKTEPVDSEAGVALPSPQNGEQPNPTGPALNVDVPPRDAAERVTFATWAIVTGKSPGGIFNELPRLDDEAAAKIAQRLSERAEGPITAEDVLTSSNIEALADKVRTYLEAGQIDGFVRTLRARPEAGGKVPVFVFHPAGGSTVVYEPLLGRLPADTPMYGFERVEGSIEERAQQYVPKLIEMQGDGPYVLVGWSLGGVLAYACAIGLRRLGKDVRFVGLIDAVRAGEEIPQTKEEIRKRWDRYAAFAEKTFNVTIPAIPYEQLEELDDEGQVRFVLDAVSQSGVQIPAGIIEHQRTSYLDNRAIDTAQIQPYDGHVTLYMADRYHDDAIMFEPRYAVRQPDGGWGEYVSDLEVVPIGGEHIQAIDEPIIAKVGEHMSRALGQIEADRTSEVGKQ
UniProt A4I591, 1-473: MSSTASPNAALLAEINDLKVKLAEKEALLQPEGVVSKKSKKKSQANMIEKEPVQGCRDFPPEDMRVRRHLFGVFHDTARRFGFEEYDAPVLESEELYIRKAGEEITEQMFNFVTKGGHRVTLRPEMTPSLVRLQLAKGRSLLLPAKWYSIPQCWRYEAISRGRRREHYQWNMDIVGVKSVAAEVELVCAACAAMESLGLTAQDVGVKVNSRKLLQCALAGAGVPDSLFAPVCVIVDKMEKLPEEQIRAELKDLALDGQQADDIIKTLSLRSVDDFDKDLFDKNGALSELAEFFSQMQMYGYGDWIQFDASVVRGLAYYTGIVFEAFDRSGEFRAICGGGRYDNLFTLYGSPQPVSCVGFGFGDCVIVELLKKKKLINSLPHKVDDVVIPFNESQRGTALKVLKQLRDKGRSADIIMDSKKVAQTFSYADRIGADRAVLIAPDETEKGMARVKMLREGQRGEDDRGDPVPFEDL
UniProt Q4DA54, 1-478: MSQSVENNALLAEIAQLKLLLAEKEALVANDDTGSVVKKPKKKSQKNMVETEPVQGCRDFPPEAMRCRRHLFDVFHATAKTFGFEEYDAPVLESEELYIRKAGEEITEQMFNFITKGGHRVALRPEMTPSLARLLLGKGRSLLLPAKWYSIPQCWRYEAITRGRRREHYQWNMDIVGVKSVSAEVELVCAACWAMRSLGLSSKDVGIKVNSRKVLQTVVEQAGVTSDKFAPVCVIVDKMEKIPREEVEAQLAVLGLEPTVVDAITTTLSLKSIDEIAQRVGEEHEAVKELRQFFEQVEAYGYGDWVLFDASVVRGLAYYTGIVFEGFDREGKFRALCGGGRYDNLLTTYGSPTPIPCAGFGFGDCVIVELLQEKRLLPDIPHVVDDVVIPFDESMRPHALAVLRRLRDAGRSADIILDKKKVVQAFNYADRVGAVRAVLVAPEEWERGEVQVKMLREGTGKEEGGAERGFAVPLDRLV

Each number is a percent effect as filed.
How 0% and 100% were set is not recorded. Most values in the screen are low, and negative values occur.
Compounds were drawn at random from those tested, without regard to their results.

MtTrpRS: 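Enzyme assay of tryptophanyl-tRNA synthetase; the read-out is not stated. Target: Tryptophan-tRNA ligase, Mycobacterium tuberculosis (UniProt P9WFT3). Tested at 10 µM. Higher most likely means stronger inhibition; the record gives no direction and few retests gave an IC50. Size under these conditions: about 65,000 compounds, about 64 of them at 50% or above in at least one test.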
Pks13 thioesterase: 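Polyketide synthase Pks13, Mycobacterium tuberculosis (UniProt I6X8D2). Enzyme assay of the thioesterase domain of polyketide synthase 13; the read-out is not stated. Compounds at 30 µM. The record gives no direction; the compounds picked for IC50 retests had high values, so higher reads as stronger inhibition. Of about 67,000 compounds tested this way, about 300 (0.46%) reached 50% or more in at least one test.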
LiHisRS: 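Histidine-tRNA ligase, Leishmania infantum (UniProt A4I591). Enzyme assay of histidyl-tRNA synthetase; the read-out is not stated. Compounds at 30 µM. Higher reads as stronger inhibition (inferred: compounds with an IC50 in retests scored well above the rest). The assay is labelled LdHisRS but filed under L. infantum. Of about 69,000 compounds tested this way, about 410 (0.6%) reached 50% or more in at least one test.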
TcHisRS: 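Histidine-tRNA ligase, Trypanosoma cruzi CL Brener (UniProt Q4DA54). Enzyme assay of histidyl-tRNA synthetase; the read-out is not stated. Concentration: 30 µM. The record gives no direction; compounds that gave an IC50 in retests scored well above the rest, so higher reads as stronger inhibition. Size under these conditions: about 69,000 compounds, about 31 of them at 50% or above in at least one test.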

structure: O=C(c1cccc(-c2ncc[nH]2)c1)N1CC[C@H](CO)[C@@H](O)C1
MtTrpRS: -0.9183
Pks13 thioesterase: -7.251
LiHisRS: 11.29
TcHisRS: 9.74

structure: Cc1ccc(CN2C[C@H](OCC3CCOCC3)[C@H]3COC[C@H]32)o1
Pks13 thioesterase: -20.78
LiHisRS: 19.23
TcHisRS: 10.61

structure: CCc1noc(CNc2ccc(F)cc2OCC2CC2)n1
MtTrpRS: -0.2322
Pks13 thioesterase: 7.129
LiHisRS: 17.31
TcHisRS: 2.5

structure: Cc1nc2n(n1)CC(NCc1c(Cl)ccc3cccnc13)CC2 (stereo not drawn)
MtTrpRS: 0.6803
Pks13 thioesterase: -11.55
LiHisRS: 17.7
TcHisRS: 2.679

structure: COCc1noc(C2(c3ccc(Br)cc3)CCOCC2)n1
MtTrpRS: -2.709
Pks13 thioesterase: -16.25
LiHisRS: 11.54
TcHisRS: 0.8333

structure: O=C(NCc1ccccn1)[C@H]1COC[C@H]2CN(C3CCCC3)C[C@H]21
MtTrpRS: 12.04
Pks13 thioesterase: -25.14
LiHisRS: 2
TcHisRS: 2.941

structure: O=C(c1ccccc1N1CCOCC1)N1CCCC(n2ccnc2)C1 (stereo not drawn)
MtTrpRS: -6.344
Pks13 thioesterase: -25.25
LiHisRS: 18.35
TcHisRS: 9.412

structure: CCc1nc2ccccc2c(=O)n1CC1(O)CCNCC1
Pks13 thioesterase: 0.07701
LiHisRS: 5.208
TcHisRS: 1.064

structure: O=C(NC1CCN(c2ccc(-c3ccccc3F)nn2)C1)c1ccc[nH]1 (stereo not drawn)
MtTrpRS: 30.78
Pks13 thioesterase: -20.54
LiHisRS: 24.35
TcHisRS: 4.124

structure: CCc1nccn1C1CCCN(C(=O)c2ccc(C(N)=O)cn2)C1 (stereo not drawn)
MtTrpRS: -4.287
Pks13 thioesterase: 6.791
LiHisRS: 7.547
TcHisRS: 1.667

structure: Cc1cnn(C2CCCN(C(=O)c3cccc(Cn4ccnc4)c3)C2)c1 (stereo not drawn)
MtTrpRS: -2.827
Pks13 thioesterase: -35.27
LiHisRS: 21.62
TcHisRS: 1.88

structure: FC(F)(F)c1cc(C2CCN(c3cnccn3)CC2)n2ccnc2n1
MtTrpRS: -6.034
Pks13 thioesterase: 18.07
LiHisRS: 14.77
TcHisRS: 4.286

structure: CC(C)CNC(=O)[C@H]1C[C@@H]2CN(C(=O)NCC3CCCCC3)C[C@H]1O2
MtTrpRS: -2.697
Pks13 thioesterase: -9.787
LiHisRS: 17.24
TcHisRS: 6.329

structure: CCC(CC)C(=O)N1CCOC2(CNC2)C1
MtTrpRS: -6.063
Pks13 thioesterase: -53.75
LiHisRS: 7.767
TcHisRS: 8.738

structure: Cc1nc(CN(Cc2ccccc2)C2CCS(=O)(=O)C2)oc1C (stereo not drawn)
MtTrpRS: -1.657
Pks13 thioesterase: 2.979
LiHisRS: 19.7
TcHisRS: -19.7

structure: Cc1cc(N2CCC(C(=O)N(C)C)CC2)nc(-c2ccncc2)n1
MtTrpRS: 3.464
Pks13 thioesterase: -9.36
LiHisRS: 17.09
TcHisRS: 3.134

structure: O=C1CO[C@H]2CN(S(=O)(=O)c3ccccc3)C[C@H]2N1CC1CCCCC1
MtTrpRS: -3.539
Pks13 thioesterase: -40.5
LiHisRS: 27.78
TcHisRS: 10.89

structure: Cc1cc(C(=O)N2CCc3nc(C4CCCN4)ncc3C2)cs1 (stereo not drawn)
MtTrpRS: -6.899
Pks13 thioesterase: 2.381
LiHisRS: 22.11
TcHisRS: 6.716

structure: CN1CC(=O)N(c2ccsc2)CC12CCN(C(=O)Nc1ccccc1)C2 (stereo not drawn)
MtTrpRS: 2.063
Pks13 thioesterase: -0.4337
LiHisRS: 11.93
TcHisRS: 12.61

structure: Cc1nnc(C(C)N2CCN(Cc3ccc4c(c3)OCO4)CC2)o1 (stereo not drawn)
MtTrpRS: -6.651
Pks13 thioesterase: -16.24
LiHisRS: 0
TcHisRS: 4.511

Once more, the final 2:

- CN1CC(=O)N(c2ccsc2)CC12CCN(C(=O)Nc1ccccc1)C2 (stereo not drawn) : MtTrpRS: 2.063%; Pks13 thioesterase: -0.4337%; LiHisRS: 11.93%; TcHisRS: 12.61%
- Cc1nnc(C(C)N2CCN(Cc3ccc4c(c3)OCO4)CC2)o1 (stereo not drawn) : MtTrpRS: -6.651%; Pks13 thioesterase: -16.24%; LiHisRS: 0%; TcHisRS: 4.511%

The values are deposited in ChEMBL (CHEMBL3988442, “University of Dundee, Small-Polar-MMV Screening Library” (2021)).